# Measured values from PMC7819943, “Rice protein-binding microarrays: a tool to detect cis-acting elements near promoter regions in rice”.
# Chains of the proteins cited; added tags and fusions are not shown.
# UniProt Q0JBA9, entry or part of it: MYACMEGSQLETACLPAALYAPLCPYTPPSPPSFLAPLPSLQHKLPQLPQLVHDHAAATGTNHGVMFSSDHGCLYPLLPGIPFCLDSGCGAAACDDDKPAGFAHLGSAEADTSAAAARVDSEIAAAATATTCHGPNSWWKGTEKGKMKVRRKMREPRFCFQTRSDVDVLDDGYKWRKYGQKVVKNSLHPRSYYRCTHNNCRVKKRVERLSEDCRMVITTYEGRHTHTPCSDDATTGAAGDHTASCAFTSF
# Some of the results follow.
# Molecular target: OsWRKY34 (Oryza sativa, UniProt Q0JBA9 1-250)
# Assay: protein-binding microarray (RPBM); PBS, 2% BSA, 51.3 ng/ul salmon testes DNA, 50 uM zinc acetate, 200 nM TF, 25 C, 1 h; high values mean tight binding
# Settings: protein: recombinant; tags: N-terminal polyhistidine and DsRed monomer fusion (pET32a); label: CyDye5-dUTP incorporated in the synthesized complementary strand; 3' TTTTT single-stranded linker to array surface; dsDNA, one strand shown
# Procedure, shortened: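 The binding signal for each feature is its fluorescence intensity in arbitrary units. An Axon 4000B scanner was used to read a custom Agilent array that had been made double-stranded with Cy5-dUTP primer extension, blocked with 2% BSA, incubated at 25 °C for 1 h with 200 nM protein in PBS, 2% BSA, salmon testes DNA and 50 µM zinc acetate, and washed. The protein was an N-terminal polyhistidine–DsRed transcription factor fusion from E. coli BL21-CodonPlus, purified on Ni–NTA.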
row,Sequence,binding signal
1,ACATTCTTCTCGCTTTCTCACGCCCTATATATACAAACAACGGAGTCACCTAGTGCAG,9390 fluorescence intensity (a.u.)
2,GCCGTCGCCTCGCGCCGCCACAGACGTCGCCGCCTCCGGCCGGAGTCACCTAGTGCAG,8140 fluorescence intensity (a.u.)
3,GTTAACACACGGTCAACCCATCATCTTCACACCTCTCAATCGGAGTCACCTAGTGCAG,10800 fluorescence intensity (a.u.)
4,CAATTTCTCGTTCGCTCTCACGTGCGCGTCGCATCTCCCTCGGAGTCACCTAGTGCAG,9070 fluorescence intensity (a.u.)
5,TTATATGTATAGGCATACACTTTGTATTTATATGTATATTCGGAGTCACCTAGTGCAG,8050 fluorescence intensity (a.u.)
6,GCTCTCGCCGCCGCCGCGGCGTCCTCGCTGCGGTCTTCTCCGGAGTCACCTAGTGCAG,9720 fluorescence intensity (a.u.)
7,CTATTATGGCTTCCTTAAAGTTGCACCCTTTTGTTTGCGCCGGAGTCACCTAGTGCAG,8910 fluorescence intensity (a.u.)
8,ATAGCATAATTCCATTGCCGTCCTATACGTTGACCAAATTCGGAGTCACCTAGTGCAG,13400 fluorescence intensity (a.u.)
9,TCTACAAACTTGGTCAAACTTAAAACAGTTTGACTTTGACCGGAGTCACCTAGTGCAG,14600 fluorescence intensity (a.u.)
10,GGGCTTAGCTCCACACAACACCTCTCATTTGGCATTTTTTCGGAGTCACCTAGTGCAG,9690 fluorescence intensity (a.u.)
11,AAGTTGGCCAAGCATCATTCTTGCTGTAAATCTATCTTGTCGGAGTCACCTAGTGCAG,8730 fluorescence intensity (a.u.)
12,GTGATCTTATGGCAATCTGAAGTCATTGTCGTATTTTTCTCGGAGTCACCTAGTGCAG,8390 fluorescence intensity (a.u.)
13,CCCGGTCTCTTGTTATACCTGTTACTCCTGGCCCGAAACGCGGAGTCACCTAGTGCAG,15400 fluorescence intensity (a.u.)
14,ATCTCAGCGTCTCTCTTCATCCTAATCACCTCGATCATTCCGGAGTCACCTAGTGCAG,10100 fluorescence intensity (a.u.)
15,TCTCTCTCTCTCCTTCGGCTCATTCGTCACTGTTCCACCGCGGAGTCACCTAGTGCAG,11300 fluorescence intensity (a.u.)
16,TGGTAAGCAGTTGTTTTTCTATGGCCATGTTGAGTGGATACGGAGTCACCTAGTGCAG,8390 fluorescence intensity (a.u.)
17,GTTTAGTTCCCAATTTTTTCTTTAAAATTTTAACTTTTTCCGGAGTCACCTAGTGCAG,8870 fluorescence intensity (a.u.)
18,GTGACCTTTTCTCGCGTGCGGATTGTATCTCCGGCTGCGCCGGAGTCACCTAGTGCAG,9890 fluorescence intensity (a.u.)
19,AGATGAGAGGTTTGGTTGGTTGGATGGTGGGGAGCGCCCGCGGAGTCACCTAGTGCAG,10400 fluorescence intensity (a.u.)
20,CCACAACATCGCCGAAGCAGTTCGCCATCTCTCGATCGATCGGAGTCACCTAGTGCAG,8100 fluorescence intensity (a.u.)
21,TCTATTCGTCCGTAAAAAACCAACATAGTATCGGATGTGACGGAGTCACCTAGTGCAG,8190 fluorescence intensity (a.u.)

# As a working copy, some entries already given.
row,Sequence,binding signal
13,CCCGGTCTCTTGTTATACCTGTTACTCCTGGCCCGAAACGCGGAGTCACCTAGTGCAG,15400 fluorescence intensity (a.u.)
14,ATCTCAGCGTCTCTCTTCATCCTAATCACCTCGATCATTCCGGAGTCACCTAGTGCAG,10100 fluorescence intensity (a.u.)
15,TCTCTCTCTCTCCTTCGGCTCATTCGTCACTGTTCCACCGCGGAGTCACCTAGTGCAG,11300 fluorescence intensity (a.u.)
16,TGGTAAGCAGTTGTTTTTCTATGGCCATGTTGAGTGGATACGGAGTCACCTAGTGCAG,8390 fluorescence intensity (a.u.)

# More entries follow.

row,Sequence,binding signal
1,GGTTAAAATGATAGAGGTGGTGTAGATGTGGTGTATTATACGGAGTCACCTAGTGCAG,8260 fluorescence intensity (a.u.)
2,CGCGGGGTCAGTTTTTAGCAGCAGCAGTACAGTAGTTGGCCGGAGTCACCTAGTGCAG,8300 fluorescence intensity (a.u.)
3,ATACTTGCTTATTCCTCCTCACCATTCCTACCACATCACACGGAGTCACCTAGTGCAG,8770 fluorescence intensity (a.u.)
4,GCAGAGTTTCCGGTTGCCACCGCACCCGTCATGCTTCTTCCGGAGTCACCTAGTGCAG,10300 fluorescence intensity (a.u.)
5,TTAATGTATGACGCCGTTGACTTTTTAATAAACGTTTGACCGGAGTCACCTAGTGCAG,40900 fluorescence intensity (a.u.)
6,CAACGGCGAATCAACGCCCGAACCGACTCTTTTATCTTTTCGGAGTCACCTAGTGCAG,9920 fluorescence intensity (a.u.)
7,GATTTGGTTTTTGGTGCCCTTCTCTTCTTCCATTTGCTCACGGAGTCACCTAGTGCAG,8850 fluorescence intensity (a.u.)
8,GGTCTCCACCCGCCAGCGTGATTGACTGTCCTTGGGCCCTCGGAGTCACCTAGTGCAG,8910 fluorescence intensity (a.u.)
9,CCGTCTCCGCCTCTCTCGCTCGCGCCGCCGGCCGCCGGCGCGGAGTCACCTAGTGCAG,9060 fluorescence intensity (a.u.)
10,CAGAATCTTATGTGCATCGCCCAATTATACTTGCCAATCTCGGAGTCACCTAGTGCAG,8360 fluorescence intensity (a.u.)
11,CACCACCACCTTGACTCCACGCACCGCCATCGACTCCTCACGGAGTCACCTAGTGCAG,9420 fluorescence intensity (a.u.)
12,TGTTCATGACTTTCTGGTCTTATCACCTCTTCAGCTCTTCCGGAGTCACCTAGTGCAG,10800 fluorescence intensity (a.u.)
13,ATGCTTGCCTTCTTCTTATTCTCCTTCCCTATGGTCTTCTCGGAGTCACCTAGTGCAG,8770 fluorescence intensity (a.u.)
14,ATATTTGTAGTACTTTTATGTTTTCGCTACTCCCTCCATACGGAGTCACCTAGTGCAG,8260 fluorescence intensity (a.u.)
15,GGTGTTCCGGCTCTCCGCACCACCGCGCCACGCCGCTCGCCGGAGTCACCTAGTGCAG,9180 fluorescence intensity (a.u.)
16,ATTGCTACGCGTGTTTGTATTGTGTGAGATTTTTGCATGTCGGAGTCACCTAGTGCAG,9740 fluorescence intensity (a.u.)
17,TGTTCGGTGGGCGAGGAGAGGAGTGGGTGGGAGTGGACTGCGGAGTCACCTAGTGCAG,8780 fluorescence intensity (a.u.)
18,TTCTATATAGACTCTAGTCTCCTCTTCTAATATTCCTTATCGGAGTCACCTAGTGCAG,8140 fluorescence intensity (a.u.)
19,TCCATCCATGTACATCGCCATCTTGCCGGTCAGCGTGCACCGGAGTCACCTAGTGCAG,14100 fluorescence intensity (a.u.)
20,AGCGGAGCCGTTCTCCACCTTCTGCACTACCGTATTCTCTCGGAGTCACCTAGTGCAG,8040 fluorescence intensity (a.u.)
21,GCTTTTTATTTCTGGTGAGTGGTGACCATTCCTAGTTTCCCGGAGTCACCTAGTGCAG,8990 fluorescence intensity (a.u.)

row,Sequence,binding signal
1,ATTCTCTTCCTACCTCGTTTAGTTATGCATCTTGCTTCGCCGGAGTCACCTAGTGCAG,13200 fluorescence intensity (a.u.)
2,AACCCGTTCACACACATTGTCAGGGACCAGCTCATTACTTCGGAGTCACCTAGTGCAG,10400 fluorescence intensity (a.u.)
3,TTGTAGAGATCAGTGAATTTTTTTTGGCGTTGTTTATTCTCGGAGTCACCTAGTGCAG,11600 fluorescence intensity (a.u.)
4,GCACCTATTTAAGGGGTTTCTAGCTGCTGCAATTTCTTTCCGGAGTCACCTAGTGCAG,8190 fluorescence intensity (a.u.)
5,GCTGTTCTTGGTTCTCGTGCTCTGATCCATTTGGCAAAATCGGAGTCACCTAGTGCAG,11200 fluorescence intensity (a.u.)
6,GCAATTTTGATGTGTGCCGTTCTTTATTACTACGTGTTAGCGGAGTCACCTAGTGCAG,9480 fluorescence intensity (a.u.)
7,CTCTATCACCGCCAGTCTGACCGGCATACACAGCCCGGTCCGGAGTCACCTAGTGCAG,10100 fluorescence intensity (a.u.)
8,TATATATATATATATATATATATATATTCGACTTCTATATCGGAGTCACCTAGTGCAG,14200 fluorescence intensity (a.u.)
9,TCCTGATCCCCTCACACCACCACGCGGCCCTCGGTCTTCCCGGAGTCACCTAGTGCAG,8240 fluorescence intensity (a.u.)
10,AAATGTGTGCTAGTTATCTGTTATGGATGAAACCCTCACTCGGAGTCACCTAGTGCAG,9970 fluorescence intensity (a.u.)
11,AGACAACACATTTCTCTCATAAAGCTTTCACTGGCATATACGGAGTCACCTAGTGCAG,8410 fluorescence intensity (a.u.)
12,AATGTGGCTGCATATTTGTGTTTATTCATCTTTCTTCCTACGGAGTCACCTAGTGCAG,9370 fluorescence intensity (a.u.)
13,TGGTGTTTGGTTGGAGGGACTAAAGTAGGGCTAAACTTTACGGAGTCACCTAGTGCAG,8870 fluorescence intensity (a.u.)
14,CAACTACGCCGCCTCCATGAGCTCCATCACGGTGCTTCGCCGGAGTCACCTAGTGCAG,8120 fluorescence intensity (a.u.)
15,TTCAGATACATTATATTAGGAGGGGTCACAGGTTAAATTTCGGAGTCACCTAGTGCAG,9080 fluorescence intensity (a.u.)
16,GGGAGTACATTTCTATTAGTTGCCAGATGAGAATTTGCAACGGAGTCACCTAGTGCAG,8180 fluorescence intensity (a.u.)
17,TTTGCTGCTGGTCGATCCATACATACACACTCCAATATACCGGAGTCACCTAGTGCAG,8800 fluorescence intensity (a.u.)
18,ATTTATCCTTTTGTTATTATTCCTTTTGGGATCGATCGATCGGAGTCACCTAGTGCAG,9900 fluorescence intensity (a.u.)
19,GGAAGATATAATTTCCTTTTATTCTGTCATTTCTTTTCTTCGGAGTCACCTAGTGCAG,8140 fluorescence intensity (a.u.)
20,CCTGCTTACTGTACATCTCTGTCATCATCCTGGCTGCAACCGGAGTCACCTAGTGCAG,9690 fluorescence intensity (a.u.)
21,CTTTCATTTTTTCCATCACATTGTTTCAATTTCAACCAAACGGAGTCACCTAGTGCAG,9160 fluorescence intensity (a.u.)

row,Sequence,binding signal
1,GAAAAATCTTTTGGCCGTACTTTTTTCATCTGGGTCCCTTCGGAGTCACCTAGTGCAG,8490 fluorescence intensity (a.u.)
2,AGTTGTGCATCTAGCCATTTTACTTTTCTTTTTTAAAAGACGGAGTCACCTAGTGCAG,9080 fluorescence intensity (a.u.)
3,AACATTCAAACTGCCGCATATTCCTAACATTCCACATCCACGGAGTCACCTAGTGCAG,9420 fluorescence intensity (a.u.)
4,CACCACTCGCCTCCGGATTGAATCCCTCCTAGCTCAGGAACGGAGTCACCTAGTGCAG,8490 fluorescence intensity (a.u.)
5,GCTCTCCGCCGACCTCCGCCGCGCGCCCACTCCCTTCTCCCGGAGTCACCTAGTGCAG,10300 fluorescence intensity (a.u.)
6,GGTCCACTGTGAAACATTTTCCTAGGTACTTTTGATATGGCGGAGTCACCTAGTGCAG,8640 fluorescence intensity (a.u.)
7,AGCGTCGCCGTCGTTGTTGCCTTGCCTCGCGACGCCGCTCCGGAGTCACCTAGTGCAG,8030 fluorescence intensity (a.u.)
8,CGATGAGGAGGAGGAGGGGCAACAGTGTTAGGGTGGATTTCGGAGTCACCTAGTGCAG,12100 fluorescence intensity (a.u.)
9,ACAAGAGCTCGGTCGCGTTGGGGTTTGGGGATCGATTGATCGGAGTCACCTAGTGCAG,9090 fluorescence intensity (a.u.)
10,ACGCCTTCCTCTCTTTTTCTTCTCTCACCTGTGCCGTTTCCGGAGTCACCTAGTGCAG,10800 fluorescence intensity (a.u.)
11,CCACCACCCCAACCCGCGTCTCCCTCGCCGCCGCCACCGCCGGAGTCACCTAGTGCAG,8660 fluorescence intensity (a.u.)
12,ATCACTTCATCTTATTTGACTTGTTCTGTTCTTCACAATTCGGAGTCACCTAGTGCAG,11100 fluorescence intensity (a.u.)
13,TCCAACCTTGCTGCTCATCTCAGCACTACTTACCGGCGTTCGGAGTCACCTAGTGCAG,8110 fluorescence intensity (a.u.)
14,TCATCGCCACCAAAGCCGTTGACCTCGCAGCTTTAATCCCCGGAGTCACCTAGTGCAG,12100 fluorescence intensity (a.u.)
15,TTCATTTTTCTTCTCCTTTTACTGTTGTGAAAATATTGTTCGGAGTCACCTAGTGCAG,10200 fluorescence intensity (a.u.)
16,TTCCGATTCCCGCAGCCGTATCTCGACGAACGCCGCGGCCCGGAGTCACCTAGTGCAG,8730 fluorescence intensity (a.u.)
17,ATTCCACGATTCAGGGGCGGTCCTTTTTCTCATTTTTTTCCGGAGTCACCTAGTGCAG,11500 fluorescence intensity (a.u.)
18,ACCACCATGCTAGTTACTACTTATTACAATAGCTTTGTGCCGGAGTCACCTAGTGCAG,8410 fluorescence intensity (a.u.)
19,GTTTTTTTTTTTCCTTTCACTTCCTTCCTGGGCTTTATTTCGGAGTCACCTAGTGCAG,17300 fluorescence intensity (a.u.)
20,GAAGCTCTCTTCTCTCTCTCTACTTGCCATGTCCGGCCATCGGAGTCACCTAGTGCAG,8900 fluorescence intensity (a.u.)
21,TCTCTTACTGATTTTCCTCCAGCACAGACGAGCACCACGCCGGAGTCACCTAGTGCAG,8360 fluorescence intensity (a.u.)

# Another view of some results above:
row	Sequence	binding signal
8	ATAGCATAATTCCATTGCCGTCCTATACGTTGACCAAATTCGGAGTCACCTAGTGCAG	13400 fluorescence intensity (a.u.)
18	TTCTATATAGACTCTAGTCTCCTCTTCTAATATTCCTTATCGGAGTCACCTAGTGCAG	8140 fluorescence intensity (a.u.)
